PubChem BioAssay AID1259331, Drosophila RNAi Screening Center – 2017
Test: 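Genes whose knock-down changes cell survival under toxic zinc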 (primary screen). System: Drosophila S2R+ cells. Reagents: long dsRNA against Drosophila genes. Timing: 5 days (4 days knock-down, then 1 day zinc). Conditions: zinc chloride at 15 mM final level for 1 day. Measurement: 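Total cellular ATP measured by luciferase luminescence as a viability proxy, turned into Z scores from three plate copies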. Direction: mean Z score: higher = more ATP than other wells, better survival under zinc; ATP luminescence: higher = more ATP, more viable cells. Hit rule: 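a reagent is called a hit when its Z score is above 1.5 or below -1.5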. Meaning of the calls: active = hit, ATP up or down; inactive = not a hit.
Here is an unselected part of about 3,100 reagents tested. 126 of them (4.1%) count as active. 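Calls are per reagent; zinc was so toxic that few knock-downs lowered ATP further, so most hits raise ATP.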 The raw values are shown without normalisation. A number with no mark means an inactive call. A plus sign joins genes that one reagent is predicted to hit. Reagent sequences are not shown. Not given: the amount of reagent.

target gene | amplicon | mean Z score | ATP luminescence, replicate 1 | ATP luminescence, replicate 2
CG14971 | DRSC08430 | -0.0516 | 34885 | 27919
if (inflated) | DRSC20341 | -0.266 | 39902 | 42028
if (inflated) | DRSC39458 | 0.673 | 62301 | 59209
Ir21a + asRNA:CR43609 | DRSC00528 | -0.24 | 42028 | 45268
Stim (Stromal interaction molecule) | DRSC20158 | -0.744 | 34868 | 39079
Stim (Stromal interaction molecule) | DRSC39682 | -0.0545 | 56173 | 60255
Calx (Na/Ca-exchange protein) | DRSC13457 | -0.25 | 38513 | 53704
Calx (Na/Ca-exchange protein) | DRSC16599 | -0.00631 | 95160 | 55910
Calx (Na/Ca-exchange protein) | DRSC21850 | -0.715 | 34673 | 47737
Calx (Na/Ca-exchange protein) | DRSC24386 | -0.238 | 56464 | 55436

Targets above whose gene name starts with I or i:
target gene | amplicon | mean Z score | ATP luminescence, replicate 1 | ATP luminescence, replicate 2
if (inflated) | DRSC20341 | -0.266 | 39902 | 42028
if (inflated) | DRSC39458 | 0.673 | 62301 | 59209
Ir21a + asRNA:CR43609 | DRSC00528 | -0.24 | 42028 | 45268

Continued:
target gene | amplicon | mean Z score | ATP luminescence, replicate 1 | ATP luminescence, replicate 2
Or10a (Odorant receptor 10a) | DRSC20264 | 0.477 | 67509 | 80561
Or10a (Odorant receptor 10a) | DRSC27634 | 0.216 | 63307 | 57734
CG6149 | DRSC10593 | -0.321 | 70235 | 57694
CG6126 | DRSC15971 | -0.143 | 46674 | 40639
CG6126 | DRSC39462 | -0.432 | 47600 | 38805
Yip1d1 (Yip1 domain-containing 1) | DRSC02166 | -0.632 | 42285 | 36634
mthl6 (methuselah-like 6) | DRSC10234 | -0.345 | 68864 | 55659
mthl6 (methuselah-like 6) | DRSC39848 | 0.211 | 56413 | 62158
Gr58a (Gustatory receptor 58a) | DRSC03910 | 0.194 | 39127 | 48989
Task6 (TWIK-related acid-sensitive K[+] channel 6) | DRSC16530 | -0.0596 | 42765 | 59380
Task6 (TWIK-related acid-sensitive K[+] channel 6) | DRSC39545 | -0.0263 | 54562 | 44548
CG31999 | DRSC17131 | 0.259 | 66360 | 74421
CG31999 | DRSC17133 | -0.354 | 38417 | 39216
Zip48C (Zinc/iron regulated transporter-related protein 48C) | DRSC06314 | -0.827 | 25881 | 24998
Zip48C (Zinc/iron regulated transporter-related protein 48C) | DRSC39573 | -0.357 | 56928 | 49418
Grl43a (Gustatory receptor-like 43a) | DRSC06383 | -0.249 | 75604 | 66389
CG1998 | DRSC19829 | 0.154 | 64268 | 73035
CG1998 | DRSC39895 | -0.119 | 59517 | 55916
